In all, about 350,000 compounds went through this assay and about 220 (0.063%) were called active. Inconclusive results, whose numbers are uncertain, are shown with a selection of clear calls. Calls come from the whole dose curve; as a rule, active = well fitted activation curve with a large enough effect; inconclusive = small, poorly fitted or top-dose-only effect; inactive = no such curve, though single readings can be large or run the other way. Potencies beside an inconclusive call are fits to weak or partial responses and may not hold up.
Test: qHTS for Activators of Integrin-Mediated Alleviation for Muscular Dystrophy; note: nearly all actives have a fitted effect of over 60% in size;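 for activation: 100% = response of the positive control SU9516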
Conditions: alpha7betagal myoblasts, beta-gal FDG fluorescence, 48 h; activation: at 38.3 µM (top of the series)
Procedure, shortened: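 Alpha7betagal+/- myoblasts (passage 13) were plated 16-24 hr, then exposed to compounds (1:260 dilution of DMSO stock) for 48 hours at 37C. After MPER lysis, β-galactosidase reporter activity was read as FDG fluorescence (ex 480/em 540) after 30 minutes.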
Potency is the fitted concentration of half-maximal effect.

Row | Compound | Potency | activation
1 | O=C(CNC(=O)c1n[nH]c2ccccc12)Nc1cc(Cl)ccc1Cl | inconclusive: 2.24 µM [activator, single point] | –
2 | CN(CC(=O)Nc1ccc(C#N)cc1)Cc1ccc(Cl)cc1 | – | inactive: 2.51%
3 | COC(=O)c1ccc2nc(-c3cccc(N)c3)cn2c1 | – | inactive: 22.6%
4 | CCCc1cc(=O)oc2cc(OCC(=O)NCCN3CCOCC3)c(Cl)cc12 | – | inactive: -14.3%
5 | Nc1ncnc2nc(SCC(=O)Nc3cccc(C(F)(F)F)c3)[nH]c12 | inconclusive: 8.91 µM [activator, single point] | –
6 | COc1cc(C(=O)Nc2cccc(-c3nnc(-c4ccco4)o3)c2)ccc1OC(C)=O | inconclusive: 3.16 µM [activator, partial curve, poor fit] | –
7 | O=C(COc1ccccc1Br)N1CCN(C(=O)c2ccco2)CC1 | inconclusive: 3.55 µM [activator, single point] | –
8 | COc1ccc(C(=O)Nc2nnc(Cc3ccccc3)s2)c(OC)c1 | inconclusive: 3.16 µM [activator, single point] | –
9 | COc1ccc(-n2nc3c(c2NC(=O)c2ccc4c(c2)OCO4)CS(=O)(=O)C3)cc1 | inconclusive: 2 µM [activator, partial curve, poor fit] | –
10 | Cc1cc(OCC(=O)NC(C)C)cc(C)c1Cl | – | inactive: 25.8%
11 | CCn1c(=O)cc(OCC(=O)NCCCN2CCCC2=O)c2ccccc21 | inconclusive: 28.2 µM [activator, single point] | –
12 | Cc1ccc(Cl)cc1NC(=O)c1cc2ccccc2cc1O | – | inactive: -55.9%
13 | O=C(NCC1CCCO1)c1cc(S(=O)(=O)N2CCOCC2)c(Cl)cc1Cl (configuration not stated) | inconclusive: 5.62 µM [activator, single point] | –
14 | Cc1[nH]nc(C(F)(F)F)c1CCC(=O)NC1CCCCCC1 | inconclusive: 28.2 µM [activator, single point] | –
15 | Cc1cc(C)n(-c2ccc(-n3ccnc3)nn2)n1 | inconclusive: 17.8 µM [activator, single point] | –
16 | CC(=O)NC(Cc1ccccc1)Cc1ccccc1 | inconclusive: 0.0355 µM [activator, full curve, poor fit] | –
17 | O=C(Nc1ccc(NC(=S)NC(=O)C(c2ccccc2)c2ccccc2)cc1)c1ccccc1 | inconclusive: 0.355 µM [activator, full curve, poor fit] | –
18 | CC(=O)Nc1ccc(S(=O)(=O)NCCc2cn3nc(C)c(C)nc3n2)cc1 | inconclusive: 28.2 µM [activator, single point] | –
19 | Cc1nn(CCC(=O)NNC(=S)Nc2ccc(F)cc2)c(C)c1Br | – | inactive: -6.55%
20 | Cn1c(=O)c2c(nc(N3CCC(C(N)=O)CC3)n2CCSc2nc3ccccc3s2)n(C)c1=O | inconclusive: 5.01 µM [activator, single point] | –
21 | CC(C)CNC(=O)COC(=O)c1ccc(Cl)c(S(N)(=O)=O)c1 | – | inactive: 5.98%
22 | Cc1cccc(N(C(=O)c2nsc(Cl)c2Cl)C(C(=O)NC2CCCC2)c2ccc(O)cc2)c1C (configuration not stated) | – | inactive: -4.75%
23 | CCOC(=O)N1CCC2(CC1)C(C#N)=C(N)Oc1n[nH]c(C)c12 | inconclusive: 28.2 µM [activator, single point] | –
24 | COc1ccc(OCC(=O)NCCC2=CCCCC2)c([N+](=O)[O-])c1 | inconclusive: 11.2 µM [activator, single point] | –

Row | Compound | Potency | activation
25 | O=C(CCS(=O)(=O)c1ccccc1)Nc1ccc2c(c1)OCO2 | – | inactive: -31.7%
26 | COc1ccc(/C=C/c2cc(C(F)(F)F)on2)cc1 | inconclusive: 5.01 µM [activator, single point] | –
27 | O=C(N/C(=C\c1ccccc1)C(=O)N1CCCCC1)c1ccc(Br)o1 | – | inactive: 2.64%
28 | CC(=O)c1ccc(N2C(=O)C3C4C=CC(CC4)C3C2=O)cc1 (configuration not stated) | inconclusive: 1.41 µM [activator, single point] | –
29 | Cc1nn(CC(=O)O)c(C)c1NC(=O)c1cccs1 | inconclusive: 3.55 µM [activator, single point] | –
30 | Cc1ccc(NC(=O)CNCC(c2ccccc2)N(C)C)cc1F (configuration not stated) | inconclusive: 2 µM [activator, full curve, poor fit] | –
31 | CCOC(=O)c1c(C)[nH]c(C)c1S(=O)(=O)NCCCc1ccco1 | inconclusive: 3.16 µM [activator, single point] | –
32 | CC(=O)N1c2ccc(S(=O)(=O)N(C)Cc3ccco3)cc2CC1C (configuration not stated) | inconclusive: 3.98 µM [activator, single point] | –
33 | Cc1ccc(S(=O)(=O)n2cc(-c3ccccc3)c(N)n2)cc1 | inconclusive: 5.01 µM [activator, single point] | –
34 | Clc1cccc(N2CCN(Cc3ccc(Br)o3)CC2)c1 | inconclusive: 0.501 µM [activator, full curve, poor fit] | –
35 | CC1CCCN(C(=O)NC(=O)c2ccc(Cl)cc2)C1 (configuration not stated) | inconclusive: 3.55 µM [activator, single point] | –
36 | CC1=CC(C)(C)N2C(=O)C3(C(C#N)=C(N)Oc4cc(O)ccc43)c3c(C)c(C)cc1c32 (configuration not stated) | – | inactive: -10.2% [at 7.66 µM]
37 | NC1(C(=O)O)CSSC1 | – | inactive: -47.6%
38 | CCC(=O)Nc1ccc(-c2ccc(N3CCC(C)CC3)nn2)cc1 | – | inactive: 25.4%
39 | O=C(COc1ccccc1)Nc1cccc2c1CCCC2 | inconclusive: 10 µM [activator, partial curve, poor fit] | –
40 | Cc1ccc(NCC(=O)Nc2ccc(Br)cc2)cc1C | inconclusive: 8.91e-05 µM [activator, full curve, poor fit] | –
41 | CC1CCCCC12NC(=O)N(CC(=O)c1ccc(Cl)s1)C2=O (configuration not stated) | inconclusive: 28.2 µM [activator, single point] | –
42 | O=c1[nH]c2cc3c(cc2cc1CN(Cc1ccc2c(c1)OCO2)Cc1nnnn1CC1CCCO1)OCO3 (configuration not stated) | – | inactive: 19.2%
43 | Cc1cccc(/C=N\N=C\c2cccc(C)c2)c1 | inconclusive: 1.12 µM [activator, partial curve, poor fit] | –
44 | CCC(OC(=O)c1nsc(Cl)c1Cl)C(=O)NCCOC (configuration not stated) | inconclusive: 5.01 µM [activator, single point] | –
45 | CCS(=O)(=O)Nc1cccc(C(=O)O)c1 | inconclusive: 28.2 µM [activator, single point] | –
46 | COc1ccc(C(=O)c2ccc(N(C)C)cc2)c(OC)c1 | – | inconclusive: -33.9% [activator]
47 | COc1ccc(CN2CCN(C3CCOCC3)CC2CCO)c(C)c1C (configuration not stated) | inconclusive: 4.47 µM [activator, single point] | –
48 | COc1ccc(C(=O)c2coc3ccc(O)cc23)cc1 | inconclusive: 5.62 µM [activator, full curve, poor fit] | –

Reformatted as tab-separated lines: entries from further up.
Row	Compound	Potency	activation
31	CCOC(=O)c1c(C)[nH]c(C)c1S(=O)(=O)NCCCc1ccco1	inconclusive: 3.16 µM [activator, single point]	–
32	CC(=O)N1c2ccc(S(=O)(=O)N(C)Cc3ccco3)cc2CC1C (configuration not stated)	inconclusive: 3.98 µM [activator, single point]	–
36	CC1=CC(C)(C)N2C(=O)C3(C(C#N)=C(N)Oc4cc(O)ccc43)c3c(C)c(C)cc1c32 (configuration not stated)	–	inactive: -10.2% [at 7.66 µM]
42	O=c1[nH]c2cc3c(cc2cc1CN(Cc1ccc2c(c1)OCO2)Cc1nnnn1CC1CCCO1)OCO3 (configuration not stated)	–	inactive: 19.2%
45	CCS(=O)(=O)Nc1cccc(C(=O)O)c1	inconclusive: 28.2 µM [activator, single point]	–
48	COc1ccc(C(=O)c2coc3ccc(O)cc23)cc1	inconclusive: 5.62 µM [activator, full curve, poor fit]	–

The list continues:

Row | Compound | Potency | activation
49 | CC1CC2=C(NC(=S)NC2c2ccc(F)cc2)/C(=C/c2ccc(F)cc2)C1 (configuration not stated) | – | inactive: 38.4%
50 | CNc1ccccc(-c2ccc3ccccc3n2)c1=O | inconclusive: 5.01 µM [activator, single point] | –
51 | COc1ccc(OC)c(CNC(=O)C2CCN(S(=O)(=O)N3CCCCC3)CC2)c1 | inconclusive: 5.01 µM [activator, single point] | –
52 | CCNC(=S)Nc1ccc(Cl)cc1 | – | inactive: -20.1%
53 | O=C(Nc1ccccc1)c1ccc2nsnc2c1 | inconclusive: 31.6 µM [activator, single point] | –
54 | O=C(NC(Cc1c[nH]c2ccccc12)C(=O)O)/C(=C\c1ccc2c(c1)OCO2)NC(=O)c1ccccc1 (configuration not stated) | inconclusive: 31.6 µM [activator, single point] | –
55 | Cc1cccc(C(=O)NC(=S)Nc2ccc(S(=O)(=O)N(C)c3ccccc3)cc2)c1 | – | inactive: -11.5%
56 | Cc1c(N/N=C(\C#N)C(=O)c2ccccc2)c(=O)n(-c2ccccc2)n1C | – | inactive: -10%
57 | Cc1nn2c3c(cnc2c1-c1ccccc1)C(=O)CC(c1ccco1)C3 (configuration not stated) | – | inactive: -37%
58 | COc1ccc(NC(=O)CN2c3cccc4cccc(c34)S2(=O)=O)cc1 | inconclusive: 5.01 µM [activator, single point] | –
59 | S=c1[nH]nc(CCc2ccccc2)n1-c1ccccc1 | – | inactive: 13.3%
60 | COc1ccc(N(C(=O)Cn2nnc3ccccc32)C(C(=O)NC(C)(C)C)c2ccc(OC)c(O)c2)cc1 (configuration not stated) | inconclusive: 2.82 µM [activator, single point] | –
61 | COc1ccc(CC(=O)N(Cc2ccccc2)c2cccc(C)c2)cc1OC | inconclusive: 28.2 µM [activator, single point] | –
62 | C=CCNC(=S)Nc1cccc(N)c1 | inconclusive: 11.2 µM [activator, single point] | –
63 | O=C(Nc1ccc([N+](=O)[O-])cc1)c1nc[nH]c1C(=O)NC1CCCCC1 | – | inactive: 16.8%
64 | C/C(=N\NC1=N[C@H]2CS(=O)(=O)C[C@H]2S1)c1ccccc1 | inconclusive: 7.94 µM [activator, partial curve, poor fit] | –
65 | CCCCC#Cc1ccc2c(c1)COc1c3ccccc3nn1-2 | – | inactive: -5.72%
66 | CC(C)n1cc(CN2CCC(C(=O)Nc3ccc(Oc4ccccc4F)cc3)CC2)cn1 | inconclusive: 5.01 µM [activator, single point] | –
67 | Cc1ccc(NC(=S)Nc2ccc3[nH]c(=O)[nH]c3c2)cc1 | inconclusive: 3.16 µM [activator, single point] | –
68 | S=C(NCCc1ccccc1)NC1CC1 | – | inactive: 5.22%
69 | CCOc1ccc(CN2CCNC(=O)C2CC(=O)NCCCOc2cccnc2)cc1 (configuration not stated) | inconclusive: 0.282 µM [activator, full curve, poor fit] | –
70 | Cc1ccc(NS(=O)(=O)c2c(C)[nH]c(=O)[nH]c2=O)c(C)c1 | – | inactive: -9.02%
71 | O=C(CSc1ncn[nH]1)N1N=C(c2ccc(Cl)cc2)CC1c1ccco1 (configuration not stated) | inconclusive: 14.1 µM [activator, single point] | –
72 | NC(=O)SCC(=O)Nc1ccc(Cl)cc1 | – | inactive: 8.26%
